Results deposited as PubChem BioAssay AID1259283 (Sanger Institute, 2017)
Aim: 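Kinome-wide siRNA search for kinases acting with BYL719, cetuximab or trametinib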 (primary screen). Cells: HT115 colorectal cancer cells. Knock-down reagent: siRNA pool against human genes. Challenge: anchor drug given one day after siRNA: BYL719 at 1 µM, cetuximab at 5 µg/ml, trametinib at 10 nM, or DMSO vehicle alone. Detection: 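Viability normalised to non-targeting pool #2 wells and averaged over replicates, robust z-score against control wells, and a synergy score for each of three drugs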. Reading the numbers: robust z-score, knock-down alone: higher = more viable cells after knock-down. Active means: 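Essential gene: robust z-score less than -3 with no drug added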. Calls: active = essential (z below -3, no drug); inactive = no change without drug.
Here is one part, drawn at random, of 794 reagents. 14 of them (1.8%) count as active. 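Calls reflect only viability loss without drug; drug synergy does not enter the call.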 Further read-outs or replicates are left out here. Not given: the amount of reagent, the time to read-out.

DAPK3 (GeneID 1613)
- robust z-score, knock-down alone: -0.497
- activity call: inactive

MAPK14 (GeneID 1432)
- robust z-score, knock-down alone: 0.789
- activity call: inactive

ROS1 (GeneID 6098)
- robust z-score, knock-down alone: -1.47
- activity call: inactive

CKMT2 (GeneID 1160)
- robust z-score, knock-down alone: 0.789
- activity call: inactive

EIF2AK1 (GeneID 27102)
- robust z-score, knock-down alone: -0.13
- activity call: inactive

MAP3K14 (GeneID 9020)
- robust z-score, knock-down alone: 0.522
- activity call: inactive

SHPK (GeneID 23729)
- robust z-score, knock-down alone: 0.789
- activity call: inactive

DYRK4 (GeneID 8798)
- robust z-score, knock-down alone: -1.2
- activity call: inactive

Next part (2 carried over from the part before).
SHPK (GeneID 23729)
- robust z-score, knock-down alone: 0.789
- activity call: inactive

DYRK4 (GeneID 8798)
- robust z-score, knock-down alone: -1.2
- activity call: inactive

CTCF (GeneID 10664)
- robust z-score, knock-down alone: 0.789
- activity call: inactive

BRD4 (GeneID 23476)
- robust z-score, knock-down alone: 0.789
- activity call: inactive

ETNK2 (GeneID 55224)
- robust z-score, knock-down alone: -1.02
- activity call: inactive

LMTK3 (GeneID 114783)
- robust z-score, knock-down alone: -0.151
- activity call: inactive
